Measurements taken from the supplement of paper PMC9744312.
Where a name gives a salt, the structure may show the parent alone. The list shows a part of the results. This is a noisy data set.

system: Peyronie's disease tunica albuginea primary fibroblasts; assay: inhibition of TGF-beta1-induced alpha-SMA expression (myofibroblast transformation), relative to TGF-beta1-only and untreated controls; higher = stronger inhibition of myofibroblast transformation; conditions: 10 µM; TGF-beta1 10 ng/mL; 72 h

Structure (SMILES)	inhibition of TGF-beta1-induced alpha-SMA expression [%]
COc1nccnc1NS(=O)(=O)c1ccc(N)cc1 [Sulfalene(SMPZ)]	19.3
Oc1cccc(O)c1 [Resorcinol]	-10.8
C[C@@H](O[C@H]1OCCN(Cc2n[nH]c(=O)[nH]2)[C@H]1c1ccc(F)cc1)c1cc(C(F)(F)F)cc(C(F)(F)F)c1 [Aprepitant]	45.6
Cc1cc(O)cc(C)c1Cl [Chloroxylenol]	-3.65
CCCCN(CCCC)CC(O)c1cc(Cl)cc2c1-c1ccc(Cl)cc1/C2=C/c1ccc(Cl)cc1 (configuration not stated) [Lumefantrine]	3.03
Cc1cn(-c2cc(NC(=O)c3ccc(C)c(Nc4nccc(-c5cccnc5)n4)c3)cc(C(F)(F)F)c2)cn1 [Nilotinib hydrochloride]	1.08
Cc1cn(-c2cc(NC(=O)c3ccc(C)c(Nc4nccc(-c5cccnc5)n4)c3)cc(C(F)(F)F)c2)cn1 [Nilotinib (AMN-107)]	-6.48
COC(=O)CCC(=O)CN [Methyl Aminolevulinate Hydrochloride]	9.88
CS(=O)(=O)c1cccc(C[C@H](NC(=O)c2c(Cl)cc3c(c2Cl)CCN(C(=O)c2ccc4ccoc4c2)C3)C(=O)O)c1 [Lifitegrast]	-1.97
O=S(=O)(O)Oc1ccc(C(c2ccc(OS(=O)(=O)O)cc2)c2ccccn2)cc1 [Sodium Picosulfate]	-15.4
NC(=O)CC[C@H](N)C(=O)O [L-Glutamine]	-1.8
Cc1cc2c(s1)Nc1ccccc1N=C2N1CCN(C)CC1 [Olanzapine]	-3.97
CNC(=O)c1ccc(Nc2ncc(C(F)(F)F)c(NCc3nccnc3N(C)S(C)(=O)=O)n2)cc1	36
Cc1ccc(NC(=O)C2(c3ccc4c(c3)OC(F)(F)O4)CC2)nc1-c1cccc(C(=O)O)c1 [VX-809 (Lumacaftor)]	77.1
OCCOc1ccc(/C(=C(/CCCl)c2ccccc2)c2ccccc2)cc1 [Ospemifene]	10.9
CC(C)OC(=O)C(C)(C)Oc1ccc(C(=O)c2ccc(Cl)cc2)cc1 [Fenofibrate]	-3.18
CCN(CC)CCOC(=O)c1ccc(N)cc1 [Procaine]	8.32
CCN(CC)CCOC(=O)c1ccc(N)cc1 [Procaine HCl]	19.5
CC[C@H](C)C(=O)O[C@H]1C[C@@H](C)C=C2C=C[C@H](C)[C@H](CC[C@@H]3C[C@@H](O)CC(=O)O3)[C@H]21 [Lovastatin]	100
Clc1ccc(C(Cn2ccnc2)OCc2ccc(Sc3ccccc3)cc2)c(Cl)c1 (configuration not stated) [Fenticonazole Nitrate]	5.48
C[C@@H](c1nc(-c2ccc(C#N)cc2)cs1)[C@](O)(Cn1cncn1)c1cc(F)ccc1F [Isavuconazole]	15.5
C[C@]1(c2nc3c(C(N)=O)cccc3[nH]2)CCCN1 [Veliparib (ABT-888)]	-46.6
CC(=O)N[C@@H](CS)C(=O)O [Acetylcysteine]	1.47
CC(=O)O[C@H]1C[C@@]2(C)[C@@H](C[C@@H](O)[C@H]3[C@@]4(C)CC[C@@H](O)[C@@H](C)[C@@H]4CC[C@@]32C)/C1=C(\CCC=C(C)C)C(=O)O [Fusidate Sodium]	-26.3

Structure (SMILES)	inhibition of TGF-beta1-induced alpha-SMA expression [%]
COc1cc(C2Oc3cc([C@H]4Oc5cc(O)cc(O)c5C(=O)[C@@H]4O)ccc3OC2CO)ccc1O (some centres not stated) [Silibinin]	23.7
CN(C)CCn1nnnc1SCC1=C(C(=O)O)N2C(=O)[C@@H](NC(=O)Cc3csc(N)n3)[C@H]2SC1 [Cefotiam hydrochloride]	11.2
CNC[C@H](O)[C@@H](O)[C@H](O)[C@H](O)CO [Meglumine]	48.5
NCCCC(O)(P(=O)(O)O)P(=O)(O)O [Alendronate sodium trihydrate]	50.7
N.N.O=C([O-])C[O-].[Pt+2] [Nedaplatin]	61
COC(=O)N[C@H](C(=O)N[C@@H](Cc1ccccc1)[C@@H](O)CN(Cc1ccc(-c2ccccn2)cc1)NC(=O)[C@@H](NC(=O)OC)C(C)(C)C)C(C)(C)C [Atazanavir Sulfate]	-14.1
COC(=O)N[C@H](C(=O)N[C@@H](Cc1ccccc1)[C@@H](O)CN(Cc1ccc(-c2ccccn2)cc1)NC(=O)[C@@H](NC(=O)OC)C(C)(C)C)C(C)(C)C [Atazanavir]	10.1
[O-][n+]1cccc(CO)c1 [Mepiroxol]	29.4
COc1ccc(C[C@H](N)C(=O)N[C@H]2[C@@H](O)[C@H](n3cnc4c(N(C)C)ncnc43)O[C@@H]2CO)cc1 [Puromycin 2HCl]	> 100
CCC[S+]([O-])c1ccc2[nH]c(NC(=O)OC)nc2c1 (configuration not stated) [Albendazole Oxide]	33.9
NC(=O)OCC(COC(N)=O)c1ccccc1 [Felbamate]	2.92
Cc1ccnc(NS(=O)(=O)c2ccc(N)cc2)n1 [Sulfamerazine]	21.3
CC(C)n1c(/C=C/C(O)CC(O)CC(=O)O)c(-c2ccc(F)cc2)c2ccccc21 (configuration not stated) [Fluvastatin Sodium]	> 100
O=c1ccn([C@@H]2O[C@H](CO)[C@@H](O)[C@H]2O)c(=O)[nH]1 [Uridine]	-0.35
CC(C)(C)c1ccc(C(=O)CCCN2CCC(OC(c3ccccc3)c3ccccc3)CC2)cc1 [Ebastine]	> 100
C[C@H](Cn1cnc2c(N)ncnc21)OCP(=O)(O)O [Tenofovir]	18.5
CCCCNc1cc(C(=O)O)cc(S(N)(=O)=O)c1Oc1ccccc1 [Bumetanide]	-19.6
CCOC(=O)[C@H](CCc1ccccc1)N[C@@H](C)C(=O)N(CC(=O)O)C1Cc2ccccc2C1 [Delapril Hydrochloride]	3.29
Cn1cc(C(=O)[C@@H]2CCc3[nH]cnc3C2)c2ccccc21 [Ramosetron Hydrochloride]	7.79
CC(C)(C)c1nc(-c2cccc(NS(=O)(=O)c3c(F)cccc3F)c2F)c(-c2ccnc(N)n2)s1	88.7
CC(C)(C)c1nc(-c2cccc(NS(=O)(=O)c3c(F)cccc3F)c2F)c(-c2ccnc(N)n2)s1 [Dabrafenib Mesylate]	91.5
C[C@H]1O[C@@H](n2cc(F)c(=O)[nH]c2=O)[C@H](O)[C@@H]1O [Doxifluridine]	11.3
CC(=O)CCCCn1c(=O)c2c(ncn2C)n(C)c1=O [Pentoxifylline]	11.3

A second format for some results above:
N.N.O=C([O-])C[O-].[Pt+2] [Nedaplatin]
  inhibition of TGF-beta1-induced alpha-SMA expression [%]: 61
COC(=O)N[C@H](C(=O)N[C@@H](Cc1ccccc1)[C@@H](O)CN(Cc1ccc(-c2ccccn2)cc1)NC(=O)[C@@H](NC(=O)OC)C(C)(C)C)C(C)(C)C [Atazanavir Sulfate]
  inhibition of TGF-beta1-induced alpha-SMA expression [%]: -14.1
